Assay results published in the supplement of paper PMC10849652.
The list shows a part of the results. Residues, ends and D or L forms follow the SMILES beside them. *: point of attachment. Cbz = O=C(OCc1ccccc1)*

The chains behind the UniProt entries cited, without tags or fusion partners. Where a name states a change or a piece, a line headed by the entry shows the natural chain unless it says otherwise.
UniProt Q5T447: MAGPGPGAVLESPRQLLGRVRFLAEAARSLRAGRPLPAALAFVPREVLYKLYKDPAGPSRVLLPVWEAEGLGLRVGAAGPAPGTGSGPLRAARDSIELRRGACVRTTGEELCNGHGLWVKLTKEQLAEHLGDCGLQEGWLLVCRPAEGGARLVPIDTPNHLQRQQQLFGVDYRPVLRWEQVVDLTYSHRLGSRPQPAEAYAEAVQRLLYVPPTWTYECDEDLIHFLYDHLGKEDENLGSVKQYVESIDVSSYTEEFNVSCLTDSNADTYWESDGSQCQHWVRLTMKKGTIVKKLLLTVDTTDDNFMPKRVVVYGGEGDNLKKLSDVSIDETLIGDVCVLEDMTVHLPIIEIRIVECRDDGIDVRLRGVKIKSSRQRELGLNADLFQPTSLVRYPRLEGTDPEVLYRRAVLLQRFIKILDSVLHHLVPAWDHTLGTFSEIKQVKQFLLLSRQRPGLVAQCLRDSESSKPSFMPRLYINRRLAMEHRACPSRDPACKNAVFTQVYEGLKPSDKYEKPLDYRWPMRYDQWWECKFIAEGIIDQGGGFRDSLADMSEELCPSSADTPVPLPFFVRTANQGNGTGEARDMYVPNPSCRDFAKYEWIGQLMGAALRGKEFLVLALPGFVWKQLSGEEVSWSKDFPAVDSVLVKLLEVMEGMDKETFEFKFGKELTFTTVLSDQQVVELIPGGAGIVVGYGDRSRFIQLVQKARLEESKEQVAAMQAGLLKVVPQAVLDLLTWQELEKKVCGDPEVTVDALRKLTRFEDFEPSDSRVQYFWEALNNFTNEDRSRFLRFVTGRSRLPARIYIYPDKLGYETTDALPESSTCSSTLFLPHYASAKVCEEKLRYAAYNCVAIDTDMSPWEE
UniProt P35269, whole entry, looked up: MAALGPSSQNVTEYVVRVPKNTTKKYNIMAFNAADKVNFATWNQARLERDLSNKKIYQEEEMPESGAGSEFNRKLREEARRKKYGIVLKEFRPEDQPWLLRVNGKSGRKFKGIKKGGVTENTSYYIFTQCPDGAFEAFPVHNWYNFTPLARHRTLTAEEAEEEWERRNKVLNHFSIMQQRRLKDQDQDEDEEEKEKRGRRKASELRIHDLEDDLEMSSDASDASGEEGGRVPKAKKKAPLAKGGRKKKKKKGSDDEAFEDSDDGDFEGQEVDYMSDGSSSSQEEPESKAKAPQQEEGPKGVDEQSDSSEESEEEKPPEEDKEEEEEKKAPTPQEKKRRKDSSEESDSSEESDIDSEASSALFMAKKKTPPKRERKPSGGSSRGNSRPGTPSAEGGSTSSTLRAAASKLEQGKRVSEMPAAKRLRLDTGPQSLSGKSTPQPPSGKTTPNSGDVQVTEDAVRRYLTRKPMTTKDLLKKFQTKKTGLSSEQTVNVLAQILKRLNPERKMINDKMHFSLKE
UniProt Q00341: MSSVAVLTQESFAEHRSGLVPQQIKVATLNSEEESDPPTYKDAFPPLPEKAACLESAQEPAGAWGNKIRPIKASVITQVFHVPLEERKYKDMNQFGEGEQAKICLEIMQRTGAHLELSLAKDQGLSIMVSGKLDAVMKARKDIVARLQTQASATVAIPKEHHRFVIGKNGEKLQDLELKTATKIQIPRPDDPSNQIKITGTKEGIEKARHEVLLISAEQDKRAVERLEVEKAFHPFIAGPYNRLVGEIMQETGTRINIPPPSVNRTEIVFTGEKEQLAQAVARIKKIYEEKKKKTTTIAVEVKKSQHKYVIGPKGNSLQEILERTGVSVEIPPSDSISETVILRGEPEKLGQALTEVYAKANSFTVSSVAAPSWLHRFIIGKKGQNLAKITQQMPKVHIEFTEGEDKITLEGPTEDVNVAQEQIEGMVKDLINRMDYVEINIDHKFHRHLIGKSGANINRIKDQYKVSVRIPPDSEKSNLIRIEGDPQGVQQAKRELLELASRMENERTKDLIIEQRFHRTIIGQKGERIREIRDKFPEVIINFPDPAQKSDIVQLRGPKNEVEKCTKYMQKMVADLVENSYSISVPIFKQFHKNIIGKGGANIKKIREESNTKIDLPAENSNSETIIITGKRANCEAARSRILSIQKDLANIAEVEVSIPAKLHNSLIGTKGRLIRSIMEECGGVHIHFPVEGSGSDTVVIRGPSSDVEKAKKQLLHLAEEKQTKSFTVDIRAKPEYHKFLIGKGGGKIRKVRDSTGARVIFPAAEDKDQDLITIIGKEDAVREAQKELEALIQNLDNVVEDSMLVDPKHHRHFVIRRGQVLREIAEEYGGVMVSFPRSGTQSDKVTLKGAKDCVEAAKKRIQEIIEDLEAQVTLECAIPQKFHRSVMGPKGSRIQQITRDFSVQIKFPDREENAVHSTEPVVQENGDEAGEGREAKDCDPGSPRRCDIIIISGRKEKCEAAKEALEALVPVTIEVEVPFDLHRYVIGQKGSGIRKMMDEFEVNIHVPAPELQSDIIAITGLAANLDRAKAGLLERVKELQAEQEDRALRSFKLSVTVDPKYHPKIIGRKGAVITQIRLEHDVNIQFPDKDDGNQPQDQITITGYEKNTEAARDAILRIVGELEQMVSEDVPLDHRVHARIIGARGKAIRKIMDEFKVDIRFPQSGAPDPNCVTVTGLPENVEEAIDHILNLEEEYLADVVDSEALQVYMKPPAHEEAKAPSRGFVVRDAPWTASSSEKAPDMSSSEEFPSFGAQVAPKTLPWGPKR
UniProt P02100: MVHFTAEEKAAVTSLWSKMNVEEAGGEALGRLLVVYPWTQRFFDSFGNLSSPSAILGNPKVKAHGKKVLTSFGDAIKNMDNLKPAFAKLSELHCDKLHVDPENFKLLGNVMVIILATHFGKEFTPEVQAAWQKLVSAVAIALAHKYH
UniProt Q9BQS7: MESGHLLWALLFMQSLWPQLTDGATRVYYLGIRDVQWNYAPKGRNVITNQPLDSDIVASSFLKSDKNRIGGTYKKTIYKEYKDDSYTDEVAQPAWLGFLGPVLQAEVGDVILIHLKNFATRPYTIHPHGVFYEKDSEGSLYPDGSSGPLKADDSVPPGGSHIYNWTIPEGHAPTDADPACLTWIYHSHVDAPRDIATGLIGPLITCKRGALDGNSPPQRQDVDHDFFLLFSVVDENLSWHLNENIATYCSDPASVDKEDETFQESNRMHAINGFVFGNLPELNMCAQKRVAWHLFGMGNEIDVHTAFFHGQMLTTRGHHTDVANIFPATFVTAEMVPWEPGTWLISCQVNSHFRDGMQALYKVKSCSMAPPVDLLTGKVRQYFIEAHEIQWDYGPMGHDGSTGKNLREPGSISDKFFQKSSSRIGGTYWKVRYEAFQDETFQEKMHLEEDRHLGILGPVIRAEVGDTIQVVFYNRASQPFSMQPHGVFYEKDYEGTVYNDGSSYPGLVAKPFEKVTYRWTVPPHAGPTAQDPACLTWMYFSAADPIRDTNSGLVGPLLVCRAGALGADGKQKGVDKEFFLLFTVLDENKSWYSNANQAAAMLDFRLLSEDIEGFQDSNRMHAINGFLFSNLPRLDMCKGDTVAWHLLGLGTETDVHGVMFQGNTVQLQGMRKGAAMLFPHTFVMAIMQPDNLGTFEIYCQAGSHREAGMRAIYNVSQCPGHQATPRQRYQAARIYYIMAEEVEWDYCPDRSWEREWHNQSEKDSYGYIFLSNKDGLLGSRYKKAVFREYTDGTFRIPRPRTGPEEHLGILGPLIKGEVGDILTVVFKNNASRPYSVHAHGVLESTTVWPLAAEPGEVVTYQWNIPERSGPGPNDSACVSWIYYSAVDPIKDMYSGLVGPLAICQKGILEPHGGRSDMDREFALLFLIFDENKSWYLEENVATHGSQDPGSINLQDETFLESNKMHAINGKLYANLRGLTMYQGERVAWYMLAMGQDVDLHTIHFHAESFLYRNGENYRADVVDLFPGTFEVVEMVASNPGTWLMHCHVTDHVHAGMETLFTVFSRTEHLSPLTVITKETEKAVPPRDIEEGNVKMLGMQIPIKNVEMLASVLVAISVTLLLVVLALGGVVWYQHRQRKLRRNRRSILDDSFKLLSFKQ
UniProt Q7Z4H3: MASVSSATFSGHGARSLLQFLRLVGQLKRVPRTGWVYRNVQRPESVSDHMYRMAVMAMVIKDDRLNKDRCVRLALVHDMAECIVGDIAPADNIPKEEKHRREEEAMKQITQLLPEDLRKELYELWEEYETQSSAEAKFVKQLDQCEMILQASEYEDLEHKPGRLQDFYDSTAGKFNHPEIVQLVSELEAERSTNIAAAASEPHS
UniProt P02724: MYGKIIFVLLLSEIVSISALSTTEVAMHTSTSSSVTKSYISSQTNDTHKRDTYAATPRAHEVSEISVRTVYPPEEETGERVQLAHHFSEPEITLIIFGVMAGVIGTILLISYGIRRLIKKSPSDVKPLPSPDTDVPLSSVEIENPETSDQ
UniProt P52655, whole entry, looked up: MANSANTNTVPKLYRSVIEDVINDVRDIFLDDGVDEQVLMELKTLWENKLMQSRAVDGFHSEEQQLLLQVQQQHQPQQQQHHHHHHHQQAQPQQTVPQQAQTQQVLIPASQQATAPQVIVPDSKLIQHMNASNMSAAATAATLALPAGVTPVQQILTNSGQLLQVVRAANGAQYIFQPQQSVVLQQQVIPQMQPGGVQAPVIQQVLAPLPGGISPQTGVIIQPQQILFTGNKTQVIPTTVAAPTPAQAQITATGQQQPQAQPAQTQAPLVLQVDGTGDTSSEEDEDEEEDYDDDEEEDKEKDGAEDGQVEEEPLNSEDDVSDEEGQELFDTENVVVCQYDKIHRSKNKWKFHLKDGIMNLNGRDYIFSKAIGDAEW
UniProt Q8NEC7: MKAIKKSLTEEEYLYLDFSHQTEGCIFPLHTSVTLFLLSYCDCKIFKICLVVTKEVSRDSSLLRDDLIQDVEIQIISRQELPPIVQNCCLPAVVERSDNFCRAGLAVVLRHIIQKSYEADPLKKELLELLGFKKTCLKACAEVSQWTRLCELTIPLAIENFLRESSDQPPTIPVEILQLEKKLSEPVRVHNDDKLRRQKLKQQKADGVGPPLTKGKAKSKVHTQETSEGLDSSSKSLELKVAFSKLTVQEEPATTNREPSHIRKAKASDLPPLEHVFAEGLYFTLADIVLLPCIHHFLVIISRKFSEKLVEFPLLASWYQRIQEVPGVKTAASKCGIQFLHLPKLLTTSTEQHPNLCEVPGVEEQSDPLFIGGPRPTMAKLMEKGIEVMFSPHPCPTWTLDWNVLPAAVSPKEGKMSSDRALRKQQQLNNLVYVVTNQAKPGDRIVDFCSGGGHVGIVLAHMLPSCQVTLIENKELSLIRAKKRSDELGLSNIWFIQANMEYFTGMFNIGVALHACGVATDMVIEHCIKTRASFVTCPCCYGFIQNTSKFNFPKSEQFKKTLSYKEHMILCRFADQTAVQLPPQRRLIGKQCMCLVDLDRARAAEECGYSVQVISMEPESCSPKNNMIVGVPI
UniProt A4D1E9: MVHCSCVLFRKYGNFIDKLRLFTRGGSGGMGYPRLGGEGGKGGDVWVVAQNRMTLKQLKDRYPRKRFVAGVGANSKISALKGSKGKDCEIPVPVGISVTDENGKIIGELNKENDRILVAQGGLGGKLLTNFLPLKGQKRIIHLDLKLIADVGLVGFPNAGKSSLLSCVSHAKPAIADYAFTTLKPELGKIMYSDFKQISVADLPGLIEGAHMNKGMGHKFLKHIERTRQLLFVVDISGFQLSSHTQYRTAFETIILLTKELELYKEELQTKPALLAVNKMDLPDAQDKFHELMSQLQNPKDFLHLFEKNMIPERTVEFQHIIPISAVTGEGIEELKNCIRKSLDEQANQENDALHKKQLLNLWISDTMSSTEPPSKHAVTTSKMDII
UniProt Q6PII5: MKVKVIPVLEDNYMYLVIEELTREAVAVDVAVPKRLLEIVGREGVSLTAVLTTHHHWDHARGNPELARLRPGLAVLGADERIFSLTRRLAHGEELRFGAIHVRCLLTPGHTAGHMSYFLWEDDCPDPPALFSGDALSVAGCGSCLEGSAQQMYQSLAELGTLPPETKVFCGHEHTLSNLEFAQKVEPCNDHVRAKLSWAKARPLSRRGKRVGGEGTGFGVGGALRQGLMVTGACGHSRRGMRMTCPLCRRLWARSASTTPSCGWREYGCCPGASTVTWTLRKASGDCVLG

Key:
Test in all cases: log2 fold change, soluble protein after heating vs DMSO (PISA); higher = thermal stabilisation; K562 cells, 10 uM, 30 min; active = over 0.2 and 3.5 SD of the protein, either way, in both replicates (recomputed)
[1] = compound: C1COCCN1CCN2C3=CC=CC=C3N=C2NC(=O)C4=CC(=CC=C4)[N+](=O)[O-] [IRAK-1-4 Inhibitor I]
Outline: (§1)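 K562 cells at 2×10^6 cells/mL were treated for 30 min with 10 μM compound, and aliquots were heated for 3 min over 48°C-58°C before pooling. Extraction used PBS with 0.5% NP-40 at 4°C, and soluble protein was the supernatant after 21,000xg for 90 min, measured by TMTpro 16plex LC-MS/MS with channel sums equalised. Thermal stability values, relative to control samples and from duplicates, are log2 fold changes.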

[2] = compound: C=CC(=O)N1CCC[C@@H](n2nc(-c3ccc(Oc4ccccc4)cc3)c3c(N)ncnc32)C1 [ibrutinib]
Outline: as §1

[3] = compound: CC(=O)c1cnc2ccc(-c3cc(Cl)c(O)c(Cl)c3)nc2c1N[C@H]1CC[C@H](CN(C)C)CC1
Outline: as §1

[4] = compound: CC(C)(C)Cn1c(N)nc2ccc(-c3[nH]c(C(C)(C)C)nc3-c3ccc(F)cc3)nc21 [ralimetinib]
Outline: as §1

[5] = compound: CC(C)(O)CC(=O)NCCn1ccc2ncnc(Nc3ccc(Oc4cccc(C(F)(F)F)c4)c(Cl)c3)c21
Outline: as §1

[6] = compound: CC(C)C1=C2N=C(C=C(N2N=C1)NCC3=CC=CC=C3)NCCCCCCN
Outline: as §1

[7] = compound: CC(C)C[C@@H](C=O)NC(=O)[C@H](CC(C)C)NC(=O)[C@H](CC(C)C)NC(=O)OCc1ccccc1
Outline: as §1

[8] = compound: CC(C)N(C[C@H]1O[C@@H](n2cnc3c(N)ncnc32)[C@H](O)[C@@H]1O)[C@H]1C[C@@H](CCc2nc3cc(C(C)(C)C)ccc3[nH]2)C1 [pinometostat]
Outline: as §1

[9] = compound: CC1=C(C(CC(=O)N1)C2=CC=C(C=C2)C(F)(F)F)C(=O)NC3=C(C=C4C(=C3)C=NN4)F
Outline: as §1

[10] = compound: CC1=C(C2=C(C=C1)C(=O)C3=CC=CC=C3N2CCCN)C
Outline: as §1

[11] = compound: CC1=C(C=C(C=C1)NC(=O)C2=CC(=CC=C2)C(C)(C)C#N)NC3=CC4=C(C=C3)N=CN(C4=O)C
Outline: as §1

[12] = compound: CC1=C(C=C(C=C1)NC(=O)C2=CC(=CC=C2)N(C)C)NC(=O)C3=CC=C(C=C3)O
Outline: as §1

[13] = compound: CC1=CC=C(C=C1)SC2=C3C=C(SC3=CN=C2)C(=O)N
Outline: as §1

[14] = compound: CC1=NC(=CC=C1)C2=C(N=C(N2)C(C)(C)C)C3=CC4=NC=CN=C4C=C3
Outline: as §1

[15] = compound: CCCCN(Cc1ccc(C(=O)NO)cc1)C(=O)Nc1ccccc1 [Nexturastat A]
Outline: as §1

[16] = compound: CCCS(=O)(=O)Nc1ccc(F)c(C(=O)c2c[nH]c3ncc(-c4ccc(Cl)cc4)cc23)c1F [vemurafenib]
Outline: as §1

[17] = compound: CCCS(=O)(=O)Nc1ccc(F)c(C(=O)c2c[nH]c3ncc(Cl)cc23)c1F
Outline: as §1

[18] = compound: CCCc1cc(C)[nH]c(=O)c1CNC(=O)c1cc(-c2ccnc(N3CCN(C)CC3)c2)cc2c1cnn2C(C)C
Outline: as §1

[19] = compound: CCN(CC)Cc1ccc2cc(COC(=O)Nc3ccc(C(=O)NO)cc3)ccc2c1 [givinostat]
Outline: as §1

[20] = compound: CCN(CCCOc1ccc2c(Nc3cc(CC(=O)Nc4cccc(F)c4)[nH]n3)ncnc2c1)CCOP(=O)(O)O [barasertib]
Outline: as §1

Measured: log2 fold change

HECTD3 (UniProt Q5T447)
inactive: [1] -0.066 | [2] 0.031 | [3] 0.035 | [4] 0.079 | [5] -0.097 | [6] -0.105 | [7] 0.022 | [8] 0.073 | [9] 0.02 | [10] -0.06 | [11] -0.027 | [12] 0.046 | [13] -0.089 | [14] 0.005 | [15] 0.167 | [16] -0.1 | [17] -0.144 | [18] 0.018 | [19] 0.038 | [20] -0.06

GTF3C1 (UniProt Q12789)
inactive: [1] 0.023 | [2] -0.196 | [3] -0.01 | [4] -0.135 | [5] -0.003 | [6] -0.169 | [7] -0.058 | [8] 0.147 | [9] 0.276 | [10] 0.105 | [11] 0.175 | [12] 0.134 | [13] -0.119 | [14] -0.061 | [15] -0.074 | [16] -0.226 | [17] -0.305 | [18] -0.064 | [19] 0.063 | [20] 0.086

GTF2F1 (UniProt P35269)
inactive: [1] -0.032 | [2] -0.009 | [3] 0.156 | [4] -0.009 | [5] -0.01 | [6] 0.02 | [7] 0.015 | [8] -0.071 | [9] 0.044 | [10] 0.061 | [11] -0.012 | [12] -0.017 | [13] 0.02 | [14] 0.077 | [15] -0.022 | [16] -0.014 | [17] -0.013 | [18] -0.025 | [19] -0.013 | [20] -0.019

HDLBP (UniProt Q00341)
inactive: [1] -0.234 | [2] -0.054 | [3] 0.05 | [4] 0.219 | [5] 0.023 | [6] -0.238 | [7] 0.155 | [8] 0.361 | [9] 0.036 | [10] -0.054 | [11] 0.027 | [12] 0.048 | [13] -0.082 | [14] -0.048 | [15] 0.383 | [16] -0.062 | [17] 0.102 | [18] 0.17 | [19] 0.133 | [20] -0.024

HBE1 (UniProt P02100)
inactive: [1] -0.01 | [2] -0.012 | [3] -0.028 | [4] -0.077 | [5] -0.007 | [6] 0.078 | [7] -0.056 | [8] -0.087 | [9] 0.05 | [10] 0.251 | [11] 0.011 | [12] -0.123 | [13] 0.052 | [14] 0.081 | [15] 0.046 | [16] 0.098 | [17] -0.026 | [18] -0.054 | [19] -0.122 | [20] 0.039

H4C1 (UniProt P62805)
inactive: [1] -0.184 | [2] 0.132 | [3] -0.023 | [4] 0.243 | [5] 0.046 | [6] -0.024 | [7] 0.251 | [8] 0.411 | [9] -0.051 | [10] 0.747 | [11] -0.183 | [12] 0.005 | [13] -0.145 | [14] -0.04 | [15] 0.772 | [16] -0.269 | [17] 0.558 | [18] 0.042 | [19] 0.411 | [20] -0.146

HEPH isoform 3 (UniProt Q9BQS7)
inactive: [1] -0.002 | [2] 0.04 | [3] -0.044 | [4] -0.003 | [5] 0.029 | [6] -0.055 | [7] 0.091 | [8] 0.013 | [9] 0.005 | [10] -0.069 | [11] -0.012 | [12] 0.011 | [13] -0.018 | [14] -0.042 | [15] 0.11 | [16] -0.048 | [17] -0.047 | [18] 0.008 | [19] 0.013 | [20] 0.018

HDDC2 (UniProt Q7Z4H3)
inactive: [1] 0.04 | [2] 0 | [3] 0.052 | [4] 0.085 | [5] 0.003 | [6] 0.074 | [7] 0 | [8] -0.076 | [10] -0.007 | [11] 0.009 | [12] -0.03 | [13] 0.014 | [14] 0.029 | [15] -0.139 | [16] 0.004 | [17] 0.034 | [18] -0.018 | [19] -0.067 | [20] -0.022

GYPA (UniProt P02724)
inactive: [1] 0.191 | [2] -0.058 | [3] -0.039 | [4] 0.049 | [5] -0.071 | [6] 0.263 | [7] -0.025 | [8] 0.03 | [9] -0.097 | [10] 0.074 | [11] 0.033 | [12] 0.033 | [13] -0.027 | [14] 0.207 | [15] -0.122 | [16] 0.029 | [17] -0.03 | [18] 0.381 | [19] 0 | [20] -0.023

2 entries picked at random from those above, as already listed:
GTF2F1 (UniProt P35269)
inactive: [1] -0.032 | [2] -0.009 | [3] 0.156 | [4] -0.009 | [5] -0.01 | [6] 0.02 | [7] 0.015 | [8] -0.071 | [9] 0.044 | [10] 0.061 | [11] -0.012 | [12] -0.017 | [13] 0.02 | [14] 0.077 | [15] -0.022 | [16] -0.014 | [17] -0.013 | [18] -0.025 | [19] -0.013 | [20] -0.019

HDDC2 (UniProt Q7Z4H3)
inactive: [1] 0.04 | [2] 0 | [3] 0.052 | [4] 0.085 | [5] 0.003 | [6] 0.074 | [7] 0 | [8] -0.076 | [10] -0.007 | [11] 0.009 | [12] -0.03 | [13] 0.014 | [14] 0.029 | [15] -0.139 | [16] 0.004 | [17] 0.034 | [18] -0.018 | [19] -0.067 | [20] -0.022

Following part:

HEATR6 (UniProt Q6AI08)
inactive: [1] 0.119 | [2] -0.043 | [3] -0.309 | [4] -0.018 | [5] -0.069 | [6] -0.042 | [7] 0.096 | [8] -0.061 | [9] 0.07 | [10] 0.11 | [11] 0.101 | [12] -0.01 | [13] 0 | [14] 0.012 | [15] -0.079 | [16] -0.094 | [17] 0.024 | [18] -0.038 | [19] 0.05 | [20] 0.069

GTF2A1 (UniProt P52655)
inactive: [1] 0.068 | [2] 0.03 | [3] 0.013 | [4] -0.142 | [5] -0.106 | [6] 0.022 | [7] -0.06 | [8] 0.035 | [11] -0.086 | [12] -0.05 | [13] -0.023 | [14] -0.006 | [15] 0.077 | [16] 0.005 | [17] -0.057 | [18] -0.011 | [19] -0.01 | [20] 0.021
active: [10] -0.415

GSTCD (UniProt Q8NEC7)
inactive: [1] -0.071 | [2] 0.044 | [3] 0.052 | [4] 0.048 | [5] -0.152 | [6] -0.191 | [7] 0.09 | [8] 0.096 | [9] -0.055 | [10] 0.183 | [11] -0.008 | [12] 0.001 | [13] 0.086 | [14] 0.022 | [15] 0.043 | [16] 0.063 | [17] -0.011 | [18] 0.192 | [19] -0.016 | [20] -0.071

GTPBP10 (UniProt A4D1E9)
inactive: [1] -0.127 | [2] -0.136 | [3] -0.189 | [4] 0.053 | [5] -0.018 | [6] 0.002 | [7] 0.122 | [8] 0.111 | [9] 0.169 | [10] 0.16 | [11] 0.181 | [12] -0.056 | [13] -0.05 | [14] 0.025 | [15] 0.004 | [16] -0.056 | [17] -0.051 | [18] 0.136 | [19] 0.138 | [20] 0.077

GSPT2 (UniProt Q8IYD1)
inactive: [1] -0.018 | [2] 0.032 | [3] -0.077 | [4] 0.052 | [5] 0.081 | [6] -0.006 | [7] 0.012 | [8] 0.035 | [9] -0.012 | [11] 0.004 | [12] -0.052 | [13] 0.013 | [14] 0.004 | [15] -0.016 | [16] -0.012 | [17] 0 | [18] -0.087 | [19] -0.02 | [20] -0.038

HAGHL isoform 2 (UniProt Q6PII5)
inactive: [1] -0.018 | [2] 0.09 | [3] -0.135 | [4] 0.209 | [5] -0.099 | [6] 0.037 | [7] -0.036 | [8] 0 | [9] -0.031 | [11] 0.111 | [12] -0.024 | [14] 0.059 | [15] -0.087 | [16] 0.112 | [18] -0.052 | [19] 0.036 | [20] 0

HEATR5A (UniProt Q86XA9)
inactive: [1] 0.03 | [2] 0.005 | [3] -0.053 | [4] -0.01 | [5] -0.117 | [6] -0.181 | [7] 0.011 | [8] 0.1 | [9] 0.005 | [10] 0.002 | [11] 0.087 | [12] 0.005 | [13] -0.029 | [14] 0.075 | [15] 0.243 | [16] -0.024 | [17] 0.175 | [18] 0.034 | [19] 0.033 | [20] 0.112
